PubChem BioAssay AID1259307 – Sanger Institute, 2017

Aim: 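siRNA kinome screen seeking kinases whose loss harms SW620 cells alone or with drugs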 (primary screen)
Cell system: SW620 colorectal cancer cells
Reagents: siRNA pool against human genes
Conditions: anchor drugs BYL719 at 1 µM, cetuximab at 5 µg/ml or trametinib at 10 nM, each beside a DMSO vehicle arm
Measurement: 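Cell viability in each well relative to non-targeting controls, averaged over replicates and turned into a robust z-score; synergy with BYL719 (1 µM), cetuximab (5 µg/ml), trametinib (10 nM) versus DMSO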
Direction: viability robust z-score, no drug: higher = more viable cells
Call rule: 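a knock-down counts as lethal alone if its drug-free robust viability z-score is lower than -3, regardless of synergy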
Calls: active = essential (lethal alone); inactive = no change alone
In all, the deposit lists 794 reagents; this is a part drawn at random. In the full data, 15 (1.9%) were called active. 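Calls reflect lethality without any drug; synergy scores did not enter the calls.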 Entries without a mark were called inactive. Not all columns of the deposit are shown. Not given: the amount of reagent, the time to read-out.

HSPB8 [SID56478941] — viability robust z-score, no drug = -0.135
DGKA [SID152151940] — viability robust z-score, no drug = 0.736
RYK [SID152147158] — viability robust z-score, no drug = 0.0298
ATRX [SID152156576] — viability robust z-score, no drug = 0.736
PSKH1 [SID135620975] — viability robust z-score, no drug = 0.736
ALPK2 [SID152151764] — viability robust z-score, no drug = 0.356
FES [SID56478510] — viability robust z-score, no drug = -0.323
CDK8 [SID56478602] — viability robust z-score, no drug = 0.736
CDK3 [SID56478597] — viability robust z-score, no drug = 0.651
FGFR4 [SID56478514] — viability robust z-score, no drug = 0.731
CSNK2A1 [SID135620685] — viability robust z-score, no drug = 0.736
MAP3K5 [SID56478697] — viability robust z-score, no drug = 0.288
PFKP [SID56479236] — viability robust z-score, no drug = -0.359
MAP3K4 [SID152151893] — viability robust z-score, no drug = -0.23
TCF7L2 [SID251759863] — viability robust z-score, no drug = 0.718
CHEK2 [SID152153325] — viability robust z-score, no drug = 0.293
ACVRL1 [SID152155046] — viability robust z-score, no drug = 0.736
NPR2 [SID152151652] — viability robust z-score, no drug = -0.568
SPHK2 [SID56478885] — viability robust z-score, no drug = 0.736
WNK4 [SID56478961] — viability robust z-score, no drug = -1.18
PIK3R5 [SID152147687] — viability robust z-score, no drug = -0.122
TAOK3 [SID152152167] — viability robust z-score, no drug = -0.156
PDK3 [SID152151041] — viability robust z-score, no drug = 0.736
PANK3 [SID56479122] — viability robust z-score, no drug = 0.736
MPP3 [SID152152750] — viability robust z-score, no drug = 0.529
NME7 [SID56479121] — viability robust z-score, no drug = 0.736
ZC3H11A [SID135624155] — viability robust z-score, no drug = -0.208
PKIB [SID56479212] — viability robust z-score, no drug = 0.611

Looked up above.
Under “viability robust z-score, no drug”, PFKP [SID56479236] reads -0.359
PANK3 [SID56479122], viability robust z-score, no drug: 0.736
Value of CDK3 [SID56478597] under “viability robust z-score, no drug”: 0.651
MAP3K5 [SID56478697], viability robust z-score, no drug: 0.288
